{"source": "paper PMC4721142", "about": "“Randomized controlled studies on the efficacy of antiarthritic agents in inhibiting cartilage degeneration and pain associated with progression of osteoarthritis in the rat” (Arthritis Research & Therapy, 2016)", "test_system": "Normal human articular chondrocytes", "experiment": "Cytotoxicity to chondrogenic pellets (CellTiter-Blue)", "data": [{"smiles": "NCCCC(O)(P(=O)(O)O)P(=O)(O)O", "note": "[Alendronate, Alendronate sodium]", "values": [{"measurement": "Non-toxic range (Chondrocyte)", "value": "0.625 to 40", "unit": "M"}]}]}
